Data reported in article PMC10763290.
Results are given in words; binding and its absence hold for the method and conditions named. For some assays here: Binding seen in cells or lysates may run through a third protein. Some binding calls cover weakened binding; strength is not graded here.

Amino acid sequences for entries named in this document (tags omitted).
UniProt P40763: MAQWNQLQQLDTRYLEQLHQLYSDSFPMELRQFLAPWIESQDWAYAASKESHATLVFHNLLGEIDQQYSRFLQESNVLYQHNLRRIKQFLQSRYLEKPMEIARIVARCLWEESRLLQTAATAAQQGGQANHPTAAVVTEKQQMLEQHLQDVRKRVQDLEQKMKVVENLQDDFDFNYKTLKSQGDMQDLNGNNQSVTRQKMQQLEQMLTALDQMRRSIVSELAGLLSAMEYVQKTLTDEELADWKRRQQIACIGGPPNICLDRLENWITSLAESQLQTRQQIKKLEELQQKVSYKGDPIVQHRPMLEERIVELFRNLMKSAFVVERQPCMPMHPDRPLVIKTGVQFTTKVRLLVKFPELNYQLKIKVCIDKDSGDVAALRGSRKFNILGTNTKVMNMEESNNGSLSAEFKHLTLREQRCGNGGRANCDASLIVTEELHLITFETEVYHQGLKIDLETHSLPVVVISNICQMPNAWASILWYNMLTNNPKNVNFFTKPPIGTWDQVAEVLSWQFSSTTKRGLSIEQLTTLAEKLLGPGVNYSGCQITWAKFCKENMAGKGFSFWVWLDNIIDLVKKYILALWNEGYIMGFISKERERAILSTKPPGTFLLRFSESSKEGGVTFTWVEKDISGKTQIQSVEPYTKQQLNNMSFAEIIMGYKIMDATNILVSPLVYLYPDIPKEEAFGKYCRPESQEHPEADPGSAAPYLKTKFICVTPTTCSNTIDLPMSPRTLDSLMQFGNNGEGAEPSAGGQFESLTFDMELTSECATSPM

What was measured:
[1] = biological target: STAT3 (human (endogenous in PCa cells)) (UniProt P40763); test: re-ChIP (sequential chromatin immunoprecipitation); DU145 cells; soluble chromatin precipitated with primary antibodies, qPCR of the MYC promoter, fold change to IgG
[2] = biological target: STAT3 (human (endogenous in PCa cells)) (UniProt P40763); test: co-IP; total protein of PCa cells extracted with the Pierce Classic Magnetic IP/Co-IP Kit; co-IP with anti-NCAPG2 and anti-STAT3 primary antibodies; western blot

- binding [1]: binds
- binding [2]: binds
B1: Non-SMC condensin II complex subunit G2 (NCAPG2) (protein, UniProt Q86XI2 1-1143)
chain: MEKRETFVQAVSKELVGEFLQFVQLDKEASDPFSLNELLDELSRKQKEELWQRLKNLLTDVLLESPVDGWQVVEAQGEDNMETEHGSKMRKSIEIIYAITSVILASVSVINESENYEALLECVIILNGILYALPESERKLQSSIQDLCVTWWEKGLPAKEDTGKTAFVMLLRRSLETKTGADVCRLWRIHQALYCFDYDLEESGEIKDMLLECFININYIKKEEGRRFLSCLFNWNINFIKMIHGTIKNQLQGLQKSLMVYIAEIYFRAWKKASGKILEAIENDCIQDFMFHGIHLPRRSPVHSKVREVLSYFHHQKKVRQGVEEMLYRLYKPILWRGLKARNSEVRSNAALLFVEAFPIRDPNLHAIEMDSEIQKQFEELYSLLEDPYPMVRSTGILGVCKITSKYWEMMPPTILIDLLKKVTGELAFDTSSADVRCSVFKCLPMILDNKLSHPLLEQLLPALRYSLHDNSEKVRVAFVDMLLKIKAVRAAKFWKICPMEHILVRLETDSRPVSRRLVSLIFNSFLPVNQPEEVWCERCVTLVQMNHAAARRFYQYAHEHTACTNIAKLIHVIRHCLNACIQRAVREPPEDEEEEDGREKENVTVLDKTLSVNDVACMAGLLEIIVILWKSIDRSMENNKEAKLYTINKFASVLPEYLKVFKDDRCKIPLFMLMSFMPASAVPPFSCGVISTLRSREEGAVDKSYCTLLDCLCSWGQVGHILELVDNWLPTEHAQAKSNTASKGRVQIHDTRPVKPELALVYIEYLLTHPKNRECLLSAPRKKLNHLLKALETSKADLESLLQTPGGKPRGFSEAAAPRAFGLHCRLSIHLQHKFCSEGKVYLSMLEDTGFWLESKILSFIQDQEEDYLKLHRVIYQQIIQTYLTVCKDVVMVGLGDHQFQMQLLQRSLGIMQTVKGFFYVSLLLDILKEITGSSLIQKTDSDEEVAMLLDTVQKVFQKMLECIARSFRKQPEEGLRLLYSVQRPLHEFITAVQSRHTDTPVHRGVLSTLIAGPVVEISHQLRKVSDVEELTPPEHLSDLPPFSRCLIGIIIKSSNVVRSFLDELKACVASNDIEGIVCLTAAVHIILVINAGKHKSSKVREVAATVHRKLKTFMEITLEEDSIERFLYESSSRTLGELLNS
